# Experimental data from the supplement of paper PMC11438910.
# The other results are listed elsewhere or left out. Only a few entries rise above the background.
# Assays:
# Test in all cases: fluorescence intensity of antibody binding to polysaccharide-coupled beads; higher = stronger binding
# [1] = biological target: pneumococcal polysaccharide Pn18B
# [2] = biological target: pneumococcal polysaccharide Pn18C
# [3] = biological target: pneumococcal polysaccharide Pn18F
# [4] = biological target: pneumococcal polysaccharide Pn19A
# [5] = biological target: pneumococcal polysaccharide Pn19B
# [6] = biological target: pneumococcal polysaccharide Pn19C
# [7] = biological target: pneumococcal polysaccharide Pn19F
# [8] = biological target: pneumococcal polysaccharide Pn2
# [9] = biological target: pneumococcal polysaccharide Pn20A
# [10] = biological target: pneumococcal polysaccharide Pn20B
# [11] = biological target: pneumococcal polysaccharide Pn21
# [12] = biological target: pneumococcal polysaccharide Pn22A
# [13] = biological target: pneumococcal polysaccharide Pn22F
# [14] = biological target: pneumococcal polysaccharide Pn23A
# [15] = biological target: pneumococcal polysaccharide Pn23B
# [16] = biological target: pneumococcal polysaccharide Pn23F
# [17] = biological target: pneumococcal polysaccharide Pn24A
# [18] = biological target: pneumococcal polysaccharide Pn24B
# [19] = biological target: pneumococcal polysaccharide Pn24F
# [20] = biological target: pneumococcal polysaccharide Pn25A
# [21] = biological target: pneumococcal polysaccharide Pn25F
# [22] = biological target: pneumococcal polysaccharide Pn27
# [23] = biological target: pneumococcal polysaccharide Pn28A
# [24] = antibody concentration 2.8593 ng/mL
# [25] = antibody concentration 15.2894 ng/mL
# [26] = antibody concentration 81.7561 ng/mL
# [27] = antibody concentration 437.17 ng/mL
# [28] = antibody concentration 2337.65 ng/mL
# [29] = antibody concentration 12500 ng/mL
# [30] = antibody concentration 0.1 ng/mL
# [31] = antibody concentration 0.534724 ng/mL
binder,measurement,setting,value
4-127.1 (protein) chain 1: QVQLQESGPGLVKPSETLSLTCAVSDYSINTGHGWTWIRQPPGKGLEWIGYIGGSSGSPNYNPSLKSRVTISKDTSKNELSLKLNSVTAADTAVYYCARRIPADRSGNDFWGQGVLVTVSS chain 2: QSVLTQPPSVSGDPGQRVTISCTGSSSNIGGFYGYWYQQFPGTAPKLLIYDNNKRPSGISDRFSGSKSGTSASLTITGLQPGDEADYYCGSWDSSLSAHVFGSGTKLTVL,fluorescence intensity,[1]; [24],30.5 MFI
same,fluorescence intensity,[1]; [25],32 MFI
same,fluorescence intensity,[1]; [26],31 MFI
same,fluorescence intensity,[1]; [27],29.2 MFI
same,fluorescence intensity,[1]; [28],33.5 MFI
same,fluorescence intensity,[1]; [29],38 MFI
same,fluorescence intensity,[2]; [30],18.5 MFI
same,fluorescence intensity,[2]; [31],17.5 MFI
same,fluorescence intensity,[2]; [24],19.5 MFI
same,fluorescence intensity,[2]; [25],17.5 MFI
same,fluorescence intensity,[2]; [26],19 MFI
same,fluorescence intensity,[2]; [27],19.5 MFI
same,fluorescence intensity,[2]; [28],23.8 MFI
same,fluorescence intensity,[2]; [29],35 MFI
same,fluorescence intensity,[3]; [30],23 MFI
same,fluorescence intensity,[3]; [31],23.5 MFI
same,fluorescence intensity,[3]; [24],23 MFI
same,fluorescence intensity,[3]; [25],24.8 MFI
same,fluorescence intensity,[3]; [26],22.5 MFI
same,fluorescence intensity,[3]; [27],26 MFI
same,fluorescence intensity,[3]; [28],27.5 MFI
same,fluorescence intensity,[3]; [29],31.5 MFI
same,fluorescence intensity,[4]; [30],17.5 MFI
same,fluorescence intensity,[4]; [31],18.5 MFI
same,fluorescence intensity,[4]; [24],18.8 MFI
same,fluorescence intensity,[4]; [25],21 MFI
same,fluorescence intensity,[4]; [26],18.5 MFI
same,fluorescence intensity,[4]; [27],18 MFI
same,fluorescence intensity,[4]; [28],22.5 MFI
same,fluorescence intensity,[4]; [29],28.5 MFI
same,fluorescence intensity,[5]; [30],30.2 MFI
same,fluorescence intensity,[5]; [31],27.5 MFI
same,fluorescence intensity,[5]; [24],27 MFI
same,fluorescence intensity,[5]; [25],29 MFI
same,fluorescence intensity,[5]; [26],26 MFI
same,fluorescence intensity,[5]; [27],32.5 MFI
same,fluorescence intensity,[5]; [28],32.5 MFI
same,fluorescence intensity,[5]; [29],74.5 MFI
same,fluorescence intensity,[6]; [30],27.2 MFI
same,fluorescence intensity,[6]; [31],27 MFI
same,fluorescence intensity,[6]; [24],24.8 MFI
same,fluorescence intensity,[6]; [25],24.5 MFI
same,fluorescence intensity,[6]; [26],25 MFI
same,fluorescence intensity,[6]; [27],27.5 MFI
same,fluorescence intensity,[6]; [28],27.5 MFI
same,fluorescence intensity,[6]; [29],55 MFI
same,fluorescence intensity,[7]; [30],26.5 MFI
same,fluorescence intensity,[7]; [31],25 MFI
same,fluorescence intensity,[7]; [24],25.5 MFI
same,fluorescence intensity,[7]; [25],27 MFI
same,fluorescence intensity,[7]; [26],24.5 MFI
same,fluorescence intensity,[7]; [27],25.8 MFI
same,fluorescence intensity,[7]; [28],33 MFI
same,fluorescence intensity,[7]; [29],44 MFI
same,fluorescence intensity,[8]; [30],20.2 MFI
same,fluorescence intensity,[8]; [31],20 MFI
same,fluorescence intensity,[8]; [24],21.5 MFI
same,fluorescence intensity,[8]; [25],18 MFI
same,fluorescence intensity,[8]; [26],19.5 MFI
same,fluorescence intensity,[8]; [27],19.5 MFI
same,fluorescence intensity,[8]; [28],22.5 MFI
same,fluorescence intensity,[8]; [29],25 MFI
same,fluorescence intensity,[9]; [30],25.2 MFI
same,fluorescence intensity,[9]; [31],22 MFI
same,fluorescence intensity,[9]; [24],24 MFI
same,fluorescence intensity,[9]; [25],23.5 MFI
same,fluorescence intensity,[9]; [26],22.5 MFI
same,fluorescence intensity,[9]; [27],25 MFI
same,fluorescence intensity,[9]; [28],25.5 MFI
same,fluorescence intensity,[9]; [29],53.2 MFI
same,fluorescence intensity,[10]; [30],24.8 MFI
same,fluorescence intensity,[10]; [31],23.5 MFI
same,fluorescence intensity,[10]; [24],24.2 MFI
same,fluorescence intensity,[10]; [25],24.2 MFI
same,fluorescence intensity,[10]; [26],22.5 MFI
same,fluorescence intensity,[10]; [27],25 MFI
same,fluorescence intensity,[10]; [28],25 MFI
same,fluorescence intensity,[10]; [29],31 MFI
same,fluorescence intensity,[11]; [30],19.2 MFI
same,fluorescence intensity,[11]; [31],20.2 MFI
same,fluorescence intensity,[11]; [24],18.2 MFI
same,fluorescence intensity,[11]; [25],19 MFI
same,fluorescence intensity,[11]; [26],19.5 MFI
same,fluorescence intensity,[11]; [27],19.2 MFI
same,fluorescence intensity,[11]; [28],20.5 MFI
same,fluorescence intensity,[11]; [29],24 MFI
same,fluorescence intensity,[12]; [30],22 MFI
same,fluorescence intensity,[12]; [31],20.5 MFI
same,fluorescence intensity,[12]; [24],20.5 MFI
same,fluorescence intensity,[12]; [25],20 MFI
same,fluorescence intensity,[12]; [26],23 MFI
same,fluorescence intensity,[12]; [27],20.5 MFI
same,fluorescence intensity,[12]; [28],24 MFI
same,fluorescence intensity,[12]; [29],35.8 MFI
same,fluorescence intensity,[13]; [30],30.8 MFI
same,fluorescence intensity,[13]; [31],32 MFI
same,fluorescence intensity,[13]; [24],32.2 MFI
same,fluorescence intensity,[13]; [25],33.2 MFI
same,fluorescence intensity,[13]; [26],31.5 MFI
same,fluorescence intensity,[13]; [27],31.5 MFI
same,fluorescence intensity,[13]; [28],33.8 MFI
same,fluorescence intensity,[13]; [29],37.2 MFI
same,fluorescence intensity,[14]; [30],21.5 MFI
same,fluorescence intensity,[14]; [31],27.5 MFI
same,fluorescence intensity,[14]; [24],23 MFI
same,fluorescence intensity,[14]; [25],24 MFI
same,fluorescence intensity,[14]; [26],22 MFI
same,fluorescence intensity,[14]; [27],28 MFI
same,fluorescence intensity,[14]; [28],36 MFI
same,fluorescence intensity,[14]; [29],49.5 MFI
same,fluorescence intensity,[15]; [30],28.2 MFI
same,fluorescence intensity,[15]; [31],31.5 MFI
same,fluorescence intensity,[15]; [24],29 MFI
same,fluorescence intensity,[15]; [25],28 MFI
same,fluorescence intensity,[15]; [26],32 MFI
same,fluorescence intensity,[15]; [27],30.5 MFI
same,fluorescence intensity,[15]; [28],32.5 MFI
same,fluorescence intensity,[15]; [29],35 MFI
same,fluorescence intensity,[16]; [30],18 MFI
same,fluorescence intensity,[16]; [31],18.5 MFI
same,fluorescence intensity,[16]; [24],17.2 MFI
same,fluorescence intensity,[16]; [25],17.5 MFI
same,fluorescence intensity,[16]; [26],18 MFI
same,fluorescence intensity,[16]; [27],18.5 MFI
same,fluorescence intensity,[16]; [28],22.2 MFI
same,fluorescence intensity,[16]; [29],34 MFI
same,fluorescence intensity,[17]; [30],14 MFI
same,fluorescence intensity,[17]; [31],16.5 MFI
same,fluorescence intensity,[17]; [24],17.5 MFI
same,fluorescence intensity,[17]; [25],16 MFI
same,fluorescence intensity,[17]; [26],16 MFI
same,fluorescence intensity,[17]; [27],15 MFI
same,fluorescence intensity,[17]; [28],16.2 MFI
same,fluorescence intensity,[17]; [29],20.5 MFI
same,fluorescence intensity,[18]; [30],19 MFI
same,fluorescence intensity,[18]; [31],17.5 MFI
same,fluorescence intensity,[18]; [24],18.5 MFI
same,fluorescence intensity,[18]; [25],17.5 MFI
same,fluorescence intensity,[18]; [26],16.2 MFI
same,fluorescence intensity,[18]; [27],20 MFI
same,fluorescence intensity,[18]; [28],22.5 MFI
same,fluorescence intensity,[18]; [29],29 MFI
same,fluorescence intensity,[19]; [30],17.5 MFI
same,fluorescence intensity,[19]; [31],20.5 MFI
same,fluorescence intensity,[19]; [24],19.5 MFI
same,fluorescence intensity,[19]; [25],16.2 MFI
same,fluorescence intensity,[19]; [26],19.5 MFI
same,fluorescence intensity,[19]; [27],19 MFI
same,fluorescence intensity,[19]; [28],24 MFI
same,fluorescence intensity,[19]; [29],27.2 MFI
same,fluorescence intensity,[20]; [30],23.5 MFI
same,fluorescence intensity,[20]; [31],23 MFI
same,fluorescence intensity,[20]; [24],22 MFI
same,fluorescence intensity,[20]; [25],23 MFI
same,fluorescence intensity,[20]; [26],23 MFI
same,fluorescence intensity,[20]; [27],26 MFI
same,fluorescence intensity,[20]; [28],30.2 MFI
same,fluorescence intensity,[20]; [29],34.5 MFI
same,fluorescence intensity,[21]; [30],29.2 MFI
same,fluorescence intensity,[21]; [31],31.5 MFI
same,fluorescence intensity,[21]; [24],30.5 MFI
same,fluorescence intensity,[21]; [25],31 MFI
same,fluorescence intensity,[21]; [26],31 MFI
same,fluorescence intensity,[21]; [27],32 MFI
same,fluorescence intensity,[21]; [28],33.2 MFI
same,fluorescence intensity,[21]; [29],37.8 MFI
same,fluorescence intensity,[22]; [30],17.5 MFI
same,fluorescence intensity,[22]; [31],17 MFI
same,fluorescence intensity,[22]; [24],17 MFI
same,fluorescence intensity,[22]; [25],16.5 MFI
same,fluorescence intensity,[22]; [26],17 MFI
same,fluorescence intensity,[22]; [27],17.5 MFI
same,fluorescence intensity,[22]; [28],23 MFI
same,fluorescence intensity,[22]; [29],70.2 MFI
same,fluorescence intensity,[23]; [30],27.8 MFI
same,fluorescence intensity,[23]; [31],26 MFI
same,fluorescence intensity,[23]; [24],27.5 MFI
same,fluorescence intensity,[23]; [25],27 MFI
same,fluorescence intensity,[23]; [26],27.5 MFI
same,fluorescence intensity,[23]; [27],27 MFI

# A stretch of the results above, as a working copy:
binder,measurement,setting,value
4-127.1 (protein) chain 1: QVQLQESGPGLVKPSETLSLTCAVSDYSINTGHGWTWIRQPPGKGLEWIGYIGGSSGSPNYNPSLKSRVTISKDTSKNELSLKLNSVTAADTAVYYCARRIPADRSGNDFWGQGVLVTVSS chain 2: QSVLTQPPSVSGDPGQRVTISCTGSSSNIGGFYGYWYQQFPGTAPKLLIYDNNKRPSGISDRFSGSKSGTSASLTITGLQPGDEADYYCGSWDSSLSAHVFGSGTKLTVL,fluorescence intensity,[4]; [29],28.5 MFI
same,fluorescence intensity,[5]; [30],30.2 MFI
same,fluorescence intensity,[5]; [31],27.5 MFI
same,fluorescence intensity,[5]; [24],27 MFI

# 6 entries drawn at random from those above:
binder,measurement,setting,value
4-127.1 (protein) chain 1: QVQLQESGPGLVKPSETLSLTCAVSDYSINTGHGWTWIRQPPGKGLEWIGYIGGSSGSPNYNPSLKSRVTISKDTSKNELSLKLNSVTAADTAVYYCARRIPADRSGNDFWGQGVLVTVSS chain 2: QSVLTQPPSVSGDPGQRVTISCTGSSSNIGGFYGYWYQQFPGTAPKLLIYDNNKRPSGISDRFSGSKSGTSASLTITGLQPGDEADYYCGSWDSSLSAHVFGSGTKLTVL,fluorescence intensity,[16]; [24],17.2 MFI
same,fluorescence intensity,[5]; [29],74.5 MFI
same,fluorescence intensity,[8]; [27],19.5 MFI
same,fluorescence intensity,[4]; [31],18.5 MFI
same,fluorescence intensity,[19]; [29],27.2 MFI
same,fluorescence intensity,[16]; [25],17.5 MFI
